The record followed here is ChEMBL document CHEMBL4184185, “Dihydrobenzisoxazole-4-one compounds are novel selective inhibitors of aldosterone synthase (CYP11B2) with in vivo activity” (Bioorg Med Chem Lett, 2018).

The nature of assay [1]: Inhibition of cynomolgus monkey adrenal mitochondrial CYP11B1 using 11-deoxycortisol as substrate after 90 mins in presence of NADPH by mass spectrometric analysis.
Assay [2] concerns the target T1, Steroid 17-alpha-hydroxylase/17,20 lyase (Homo sapiens, UniProt P05093).
T1 sequence (P05093 whole entry): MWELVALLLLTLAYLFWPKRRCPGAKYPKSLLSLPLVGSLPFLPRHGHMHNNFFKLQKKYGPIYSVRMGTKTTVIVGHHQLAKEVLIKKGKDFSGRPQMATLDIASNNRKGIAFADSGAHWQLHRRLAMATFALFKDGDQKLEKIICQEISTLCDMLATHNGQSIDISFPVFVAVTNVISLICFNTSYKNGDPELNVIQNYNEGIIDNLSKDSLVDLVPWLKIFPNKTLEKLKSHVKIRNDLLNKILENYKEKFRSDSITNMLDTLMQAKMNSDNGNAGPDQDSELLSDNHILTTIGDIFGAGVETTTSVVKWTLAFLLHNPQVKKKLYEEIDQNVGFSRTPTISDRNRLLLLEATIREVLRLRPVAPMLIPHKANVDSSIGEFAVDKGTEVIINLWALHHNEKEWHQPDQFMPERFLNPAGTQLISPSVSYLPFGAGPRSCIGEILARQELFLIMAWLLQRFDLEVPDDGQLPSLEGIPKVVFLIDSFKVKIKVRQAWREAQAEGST
The assay can be described thus: Inhibition of CYP17A1 (unknown origin). The format is ADME.

The nature of assay [3]: Inhibition of cynomolgus monkey adrenal mitochondrial CYP11B2 using corticosterone as substrate after 60 mins in presence of NADPH by mass spectrometric analysis.

For `N#Cc1ccc([C@H]2CCCc3cncn32)cc1` [DEXFADROSTAT], the pIC50 (commonly the IC50 on a negative log10 scale, so that one unit is a factor of ten) amounted to 7.9 in assay [1] and 8.4 in assay [3]. Further, in assay [2], the IC50 (commonly the point on the concentration scale where inhibition reaches its midpoint) is greater than 20 µM.
